PubChem BioAssay AID1224830 | NIAID – 2016
Assay: 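Host factors that control LPS-induced TNF expression in human macrophages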 (primary screen). Cell system: human THP-1 monocytic leukaemia cells, TNF dual-luciferase reporter clone, PMA-differentiated to macrophage-like cells. Reagents: siRNA pool against human genes, 50 nM. Time to read-out: LPS for 4 h, given about 3 days after siRNA transfection. Conditions: bacterial LPS (TLR4 ligand), 10 ng/ml. Read-out: 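Ratio of firefly to renilla light, scaled to the plate median and expressed as a robust z-score per replicate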. Direction: TNF reporter robust z-score: higher = stronger TNF reporter response to LPS. Rule for the call: 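a well is active when its z-score exceeds 2.8 or falls below -1.5; control wells carry no call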.
The whole screen tested about 18,000 reagents; below is a part drawn at random. Over the whole deposit, about 2,900 (16%) were called active. 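Calls are made per well; low scores hint the gene aids the LPS response, high scores that it dampens it.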 Entries without a mark were called inactive. Repeated entries: four replicate wells of each siRNA pool.

| TNF reporter robust z-score | gene |
| --- | --- |
| 1.21 | ENTREP1 (endosomal transmembrane epsin interactor 1) |
| -0.92 | ENTREP1 (endosomal transmembrane epsin interactor 1) |
| -0.58 | ENTREP1 (endosomal transmembrane epsin interactor 1) |
| -0.01 | ENTREP1 (endosomal transmembrane epsin interactor 1) |
| -0.97 | MAP2K6 (mitogen-activated protein kinase kinase 6) |
| -1.16 | MAP2K6 (mitogen-activated protein kinase kinase 6) |
| -0.77 | MAP2K6 (mitogen-activated protein kinase kinase 6) |
| -0.06 | MAP2K6 (mitogen-activated protein kinase kinase 6) |
| -0.8 | EIF3B (eukaryotic translation initiation factor 3 subunit B) |
| -0.87 | EIF3B (eukaryotic translation initiation factor 3 subunit B) |
| -0.76 | EIF3B (eukaryotic translation initiation factor 3 subunit B) |
| -1.01 | EIF3B (eukaryotic translation initiation factor 3 subunit B) |
| -0.87 | ZBTB45 (zinc finger and BTB domain containing 45) |
| -0.54 | ZBTB45 (zinc finger and BTB domain containing 45) |
| -0.34 | ZBTB45 (zinc finger and BTB domain containing 45) |
| 0.13 | ZBTB45 (zinc finger and BTB domain containing 45) |
| 3.35 (active) | SIRT1 (sirtuin 1) |
| 1.97 | SIRT1 (sirtuin 1) |
| 1.96 | SIRT1 (sirtuin 1) |
| 1.73 | SIRT1 (sirtuin 1) |
| -0.29 | PRAMEF7 (PRAME family member 7) |
| 0.01 | PRAMEF7 (PRAME family member 7) |
| -0.42 | PRAMEF7 (PRAME family member 7) |
| 1.02 | PRAMEF7 (PRAME family member 7) |
| 2.94 (active) | LMAN1 (lectin, mannose binding 1) |
| 1.56 | LMAN1 (lectin, mannose binding 1) |
| 0.43 | LMAN1 (lectin, mannose binding 1) |
| -0.04 | LMAN1 (lectin, mannose binding 1) |
| -0.46 | POLR2G (RNA polymerase II subunit G) |
| -1.36 | POLR2G (RNA polymerase II subunit G) |
| 0.14 | POLR2G (RNA polymerase II subunit G) |
| -0.16 | POLR2G (RNA polymerase II subunit G) |
| -0.02 | GPR17 (G protein-coupled receptor 17) |
| 0.94 | GPR17 (G protein-coupled receptor 17) |
| 0.27 | GPR17 (G protein-coupled receptor 17) |
| 2.49 | GPR17 (G protein-coupled receptor 17) |
| -0.19 | RPL18 (ribosomal protein L18) |
| -0.26 | RPL18 (ribosomal protein L18) |
| -0.52 | RPL18 (ribosomal protein L18) |
| -0.22 | RPL18 (ribosomal protein L18) |
| -2.33 (active) | LPXN (leupaxin) |
| 0.12 | LPXN (leupaxin) |
| -1.05 | LPXN (leupaxin) |
| -0.35 | LPXN (leupaxin) |
| -1.22 | PRSS58 (serine protease 58) |
| -1.31 | PRSS58 (serine protease 58) |
| 0.17 | PRSS58 (serine protease 58) |
| 0.58 | PRSS58 (serine protease 58) |
| -1.89 (active) | EPHA5 (EPH receptor A5) |
| -0.31 | EPHA5 (EPH receptor A5) |
| 0.26 | EPHA5 (EPH receptor A5) |
| -0.07 | EPHA5 (EPH receptor A5) |
| 0.63 | LRRC71 (leucine rich repeat containing 71) |
| -0.32 | LRRC71 (leucine rich repeat containing 71) |
| -1.03 | LRRC71 (leucine rich repeat containing 71) |
| -0.82 | LRRC71 (leucine rich repeat containing 71) |
| 0.01 | GRIK5 (glutamate ionotropic receptor kainate type subunit 5) |
| 0.19 | GRIK5 (glutamate ionotropic receptor kainate type subunit 5) |
| -1.09 | GRIK5 (glutamate ionotropic receptor kainate type subunit 5) |
| -0.38 | GRIK5 (glutamate ionotropic receptor kainate type subunit 5) |
| -0.42 | H2AC18 (H2A clustered histone 18) |
| -0.24 | H2AC18 (H2A clustered histone 18) |
| -0.71 | H2AC18 (H2A clustered histone 18) |
| 0.31 | H2AC18 (H2A clustered histone 18) |
| 0.29 | MICALL1 (MICAL like 1) |
| 0.69 | MICALL1 (MICAL like 1) |
| 0.17 | MICALL1 (MICAL like 1) |
| 1.8 | MICALL1 (MICAL like 1) |

Quoted from the entries so far (18 entries):
| TNF reporter robust z-score | gene |
| --- | --- |
| 1.73 | SIRT1 (sirtuin 1) |
| -0.29 | PRAMEF7 (PRAME family member 7) |
| 0.01 | PRAMEF7 (PRAME family member 7) |
| -0.42 | PRAMEF7 (PRAME family member 7) |
| 1.02 | PRAMEF7 (PRAME family member 7) |
| 2.94 (active) | LMAN1 (lectin, mannose binding 1) |
| 1.56 | LMAN1 (lectin, mannose binding 1) |
| 0.43 | LMAN1 (lectin, mannose binding 1) |
| -0.04 | LMAN1 (lectin, mannose binding 1) |
| -0.46 | POLR2G (RNA polymerase II subunit G) |
| -1.36 | POLR2G (RNA polymerase II subunit G) |
| 0.14 | POLR2G (RNA polymerase II subunit G) |
| -0.16 | POLR2G (RNA polymerase II subunit G) |
| -0.02 | GPR17 (G protein-coupled receptor 17) |
| 0.94 | GPR17 (G protein-coupled receptor 17) |
| 0.27 | GPR17 (G protein-coupled receptor 17) |
| 2.49 | GPR17 (G protein-coupled receptor 17) |
| -0.19 | RPL18 (ribosomal protein L18) |

The list goes on.
| TNF reporter robust z-score | gene |
| --- | --- |
| -0.81 | FAM168B (family with sequence similarity 168 member B) |
| -0.21 | FAM168B (family with sequence similarity 168 member B) |
| -0.95 | FAM168B (family with sequence similarity 168 member B) |
| -1.58 (active) | FAM168B (family with sequence similarity 168 member B) |
| 1.72 | PJA1 (praja ring finger ubiquitin ligase 1) |
| 4.74 (active) | PJA1 (praja ring finger ubiquitin ligase 1) |
| 0.64 | PJA1 (praja ring finger ubiquitin ligase 1) |
| 0.55 | PJA1 (praja ring finger ubiquitin ligase 1) |
| 0.19 | NBPF8 (NBPF member 8) |
| 0.74 | NBPF8 (NBPF member 8) |
| -0.16 | NBPF8 (NBPF member 8) |
| 0.11 | NBPF8 (NBPF member 8) |
| -0.79 | RERGL (RERG like) |
| -1.13 | RERGL (RERG like) |
| -1.22 | RERGL (RERG like) |
| -0.48 | RERGL (RERG like) |
| -0.17 | CNOT10 (CCR4-NOT transcription complex subunit 10) |
| 0.83 | CNOT10 (CCR4-NOT transcription complex subunit 10) |
| -0.73 | CNOT10 (CCR4-NOT transcription complex subunit 10) |
| 1.02 | CNOT10 (CCR4-NOT transcription complex subunit 10) |
| 0.78 | SCFD1 (sec1 family domain containing 1) |
| 0.6 | SCFD1 (sec1 family domain containing 1) |
| -0.23 | SCFD1 (sec1 family domain containing 1) |
| 0.83 | SCFD1 (sec1 family domain containing 1) |
| 0.41 | GSDME (gasdermin E) |
| 0.98 | GSDME (gasdermin E) |
| 0.08 | GSDME (gasdermin E) |
| 1.07 | GSDME (gasdermin E) |
| 2.11 | ZNF446 (zinc finger protein 446) |
| 1.09 | ZNF446 (zinc finger protein 446) |
| 0.1 | ZNF446 (zinc finger protein 446) |
| 0.9 | ZNF446 (zinc finger protein 446) |
| 0.42 | GAL3ST2 (galactose-3-O-sulfotransferase 2) |
| -0.61 | GAL3ST2 (galactose-3-O-sulfotransferase 2) |
| 1.34 | GAL3ST2 (galactose-3-O-sulfotransferase 2) |
| 1.54 | GAL3ST2 (galactose-3-O-sulfotransferase 2) |
| 3.03 (active) | IGSF8 (immunoglobulin superfamily member 8) |
| 0.12 | IGSF8 (immunoglobulin superfamily member 8) |
| 1.38 | IGSF8 (immunoglobulin superfamily member 8) |
| 3.11 (active) | IGSF8 (immunoglobulin superfamily member 8) |
| 2 | NTS (neurotensin) |
| 1.53 | NTS (neurotensin) |
| 0.16 | NTS (neurotensin) |
| -0.67 | NTS (neurotensin) |
